Data reported in article PMC4335056.
No constants are given. Whether binding was seen depends on the method and setting. In cells and extracts the contact can be indirect. These calls come from enrichment with a bait or labelling near it, and not all partners need be listed. Where a sequence is shown, tags or fusion partners need not be part of it.

T1: TwinkleFLAG (mtDNA helicase Twinkle with a FLAG tag at its C-terminus) (UniProt Q96RR1)
T1 sequence: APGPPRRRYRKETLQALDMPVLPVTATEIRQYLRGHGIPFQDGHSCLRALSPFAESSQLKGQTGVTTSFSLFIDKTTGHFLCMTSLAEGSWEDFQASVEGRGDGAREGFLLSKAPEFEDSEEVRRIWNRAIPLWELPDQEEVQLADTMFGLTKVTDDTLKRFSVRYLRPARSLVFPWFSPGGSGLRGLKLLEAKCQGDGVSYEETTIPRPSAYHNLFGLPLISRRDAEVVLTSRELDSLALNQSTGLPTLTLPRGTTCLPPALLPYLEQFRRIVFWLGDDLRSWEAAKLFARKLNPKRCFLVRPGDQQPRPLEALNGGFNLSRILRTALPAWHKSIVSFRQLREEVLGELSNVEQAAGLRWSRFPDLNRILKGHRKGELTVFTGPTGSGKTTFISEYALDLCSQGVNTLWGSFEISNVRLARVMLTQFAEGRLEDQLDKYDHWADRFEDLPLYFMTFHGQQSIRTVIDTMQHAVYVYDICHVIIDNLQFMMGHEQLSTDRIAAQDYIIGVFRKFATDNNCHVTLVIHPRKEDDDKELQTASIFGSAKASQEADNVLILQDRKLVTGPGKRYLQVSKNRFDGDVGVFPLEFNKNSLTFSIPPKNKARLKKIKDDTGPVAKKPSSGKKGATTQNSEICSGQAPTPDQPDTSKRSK

B1: DDX28 (protein, UniProt Q9NUL7 1-540)
chain: MALTRPVRLFSLVTRLLLAPRRGLTVRSPDEPLPVVRIPVALQRQLEQRQSRRRNLPRPVLVRPGPLLVSARRPELNQPARLTLGRWERAPLASQGWKSRRARRDHFSIERAQQEAPAVRKLSSKGSFADLGLEPRVLHALQEAAPEVVQPTTVQSSTIPSLLRGRHVVCAAETGSGKTLSYLLPLLQRLLGQPSLDSLPIPAPRGLVLVPSRELAQQVRAVAQPLGRSLGLLVRDLEGGHGMRRIRLQLSRQPSADVLVATPGALWKALKSRLISLEQLSFLVLDEADTLLDESFLELVDYILEKSHIAEGPADLEDPFNPKAQLVLVGATFPEGVGQLLNKVASPDAVTTITSSKLHCIMPHVKQTFLRLKGADKVAELVHILKHRDRAERTGPSGTVLVFCNSSSTVNWLGYILDDHKIQHLRLQGQMPALMRVGIFQSFQKSSRDILLCTDIASRGLDSTGVELVVNYDFPPTLQDYIHRAGRVGRVGSEVPGTVISFVTHPWDVSLVQKIELAARRRRSLPGLASSVKEPLPQAT
B2: MTIF2 (protein, UniProt P46199 30-727)
chain: LRQWRHGFSSAYPVWTAQLCAWPWPTDVLTGAALSQYRLLVTKKEEGPWKSQLSSTKSKKVVEVWIGMTIEELARAMEKNTDYVYEALLNTDIDIDSLEADSHLDEVWIKEVITKAGMKLKWSKLKQDKVRKNKDAVRRPQADPALLTPRSPVVTIMGHVDHGKTTLLDKFRKTQVAAVETGGITQHIGAFLVSLPSGEKITFLDTPGHAAFSAMRARGAQVTDIVVLVVAADDGVMKQTVESIQHAKDAQVPIILAVNKCDKAEADPEKVKKELLAYDVVCEDYGGDVQAVPVSALTGDNLMALAEATVALAEMLELKADPNGPVEGTVIESFTDKGRGLVTTAIIQRGTLRKGSVLVAGKCWAKVRLMFDENGKTIDEAYPSMPVGITGWRDLPSAGEEILEVESEPRAREVVDWRKYEQEQEKGQEDLKIIEEKRKEHKEAHQKAREKYGHLLWKKRSILRFLERKEQIPLKPKEKRERDSNVLSVIIKGDVDGSVEAILNIIDTYDASHECELELVHFGVGDVSANDVNLAETFDGVIYGFNVNAGNVIQQSAAKKGVKIKLHKIIYRLVEDLQEELSSRLPCAVEEHPVGEASILATFSVTEGKKKVPVAGCRVQKGQLEKQKKFKLTRNGHVIWKGSLTSLKHHKDDISIVKTGMDCGLSLDEDNMEFQVGDRIVCYEEKQIQAKTSWDPGF
B3: MTRF1 (protein, UniProt O75570 62-445)
chain: CHQDTKMLWKHKALQKYMENLSKEYQTLEQCLQHIPVNEENRRSLNRRHAELAPLAAIYQEIQETEQAIEELESMCKSLNKQDEKQLQELALEERQTIDQKINMLYNELFQSLVPKEKYDKNDVILEVTAGRTTGGDICQQFTREIFDMYQNYSCYKHWQFELLNYTPADYGGLHHAAARISGDGVYKHLKYEGGIHRVQRIPEVGLSSRMQRIHTGTMSVIVLPQPDEVDVKLDPKDLRIDTFRAKGAGGQHVNKTDSAVRLVHIPTGLVVECQQERSQIKNKEIAFRVLRARLYQQIIEKDKRQQQSARKLQVGTRAQSERIRTYNFTQDRVSDHRIAYEVRDIKEFLCGGKGLDQLIQRLLQSADEEAIAELLDEHLKSAK
B4: DHX30 (protein, UniProt Q7L2E3 1-1194)
chain: MFSLDSFRKDRAQHRQRQCKLPPPRLPPMCVNPTPGGTISRASRDLLKEFPQPKNLLNSVIGRALGISHAKDKLVYVHTNGPKKKKVTLHIKWPKSVEVEGYGSKKIDAERQAAAAACQLFKGWGLLGPRNELFDAAKYRVLADRFGSPADSWWRPEPTMPPTSWRQLNPESIRPGGPGGLSRSLGREEEEDEEEELEEGTIDVTDFLSMTQQDSHAPLRDSRGSSFEMTDDDSAIRALTQFPLPKNLLAKVIQIATSSSTAKNLMQFHTVGTKTKLSTLTLLWPCPMTFVAKGRRKAEAENKAAALACKKLKSLGLVDRNNEPLTHAMYNLASLRELGETQRRPCTIQVPEPILRKIETFLNHYPVESSWIAPELRLQSDDILPLGKDSGPLSDPITGKPYVPLLEAEEVRLSQSLLELWRRRGPVWQEAPQLPVDPHRDTILNAIEQHPVVVISGDTGCGKTTRIPQLLLERYVTEGRGARCNVIITQPRRISAVSVAQRVSHELGPSLRRNVGFQVRLESKPPSRGGALLFCTVGILLRKLQSNPSLEGVSHVIVDEVHERDVNTDFLLILLKGLQRLNPALRLVLMSATGDNERFSRYFGGCPVIKVPGFMYPVKEHYLEDILAKLGKHQYLHRHRHHESEDECALDLDLVTDLVLHIDARGEPGGILCFLPGWQEIKGVQQRLQEALGMHESKYLILPVHSNIPMMDQKAIFQQPPVGVRKIVLATNIAETSITINDIVHVVDSGLHKEERYDLKTKVSCLETVWVSRANVIQRRGRAGRCQSGFAYHLFPRSRLEKMVPFQVPEILRTPLENLVLQAKIHMPEKTAVEFLSKAVDSPNIKAVDEAVILLQEIGVLDQREYLTTLGQRLAHISTDPRLAKAIVLAAIFRCLHPLLVVVSCLTRDPFSSSLQNRAEVDKVKALLSHDSGSDHLAFVRAVAGWEEVLRWQDRSSRENYLEENLLYAPSLRFIHGLIKQFSENIYEAFLVGKPSDCTLASAQCNEYSEEEELVKGVLMAGLYPNLIQVRQGKVTRQGKFKPNSVTYRTKSGNILLHKSTINREATRLRSRWLTYFMAVKSNGSVFVRDSSQVHPLAVLLLTDGDVHIRDDGRRATISLSDSDLLRLEGDSRTVRLLKELRRALGRMVERSLRSELAALPPSVQEEHGQLLALLAELLRGPCGSFDVRKTADD
B5: LONP1 (enzyme, UniProt P36776 68-959)
chain: FWEASSRGGGAFSGGEDASEGGAEEGAGGAGGSAGAGEGPVITALTPMTIPDVFPHLPLIAITRNPVFPRFIKIIEVKNKKLVELLRRKVRLAQPYVGVFLKRDDSNESDVVESLDEIYHTGTFAQIHEMQDLGDKLRMIVMGHRRVHISRQLEVEPEEPEAENKHKPRRKSKRGKKEAEDELSARHPAELAMEPTPELPAEVLMVEVENVVHEDFQVTEEVKALTAEIVKTIRDIIALNPLYRESVLQMMQAGQRVVDNPIYLSDMGAALTGAESHELQDVLEETNIPKRLYKALSLLKKEFELSKLQQRLGREVEEKIKQTHRKYLLQEQLKIIKKELGLEKDDKDAIEEKFRERLKELVVPKHVMDVVDEELSKLGLLDNHSSEFNVTRNYLDWLTSIPWGKYSNENLDLARAQAVLEEDHYGMEDVKKRILEFIAVSQLRGSTQGKILCFYGPPGVGKTSIARSIARALNREYFRFSVGGMTDVAEIKGHRRTYVGAMPGKIIQCLKKTKTENPLILIDEVDKIGRGYQGDPSSALLELLDPEQNANFLDHYLDVPVDLSKVLFICTANVTDTIPEPLRDRMEMINVSGYVAQEKLAIAERYLVPQARALCGLDESKAKLSSDVLTLLIKQYCRESGVRNLQKQVEKVLRKSAYKIVSGEAESVEVTPENLQDFVGKPVFTVERMYDVTPPGVVMGLAWTAMGGSTLFVETSLRRPQDKDAKGDKDGSLEVTGQLGEVMKESARIAYTFARAFLMQHAPANDYLVTSHIHLHVPEGATPKDGPSAGCTIVTALLSLAMGRPVRQNLAMTGEVSLTGKILPVGGIKEKTIAAKRAGVTCIVLPAENKKDFYDLAAFITEGLEVHFVEHYREIFDIAFPDEQAEALAVER
B6: GRSF1 (protein, UniProt Q12849 118-480)
chain: SQESKTTYLEDLPPPPEYELAPSKLEEEVDDVFLIRAQGLPWSCTMEDVLNFFSDCRIRNGENGIHFLLNRDGKRRGDALIEMESEQDVQKALEKHRMYMGQRYVEVYEINNEDVDALMKSLQVKSSPVVNDGVVRLRGLPYSCNEKDIVDFFAGLNIVDITFVMDYRGRRKTGEAYVQFEEPEMANQALLKHREEIGNRYIEIFPSRRNEVRTHVGSYKGKKIASFPTAKYITEPEMVFEEHEVNEDIQPMTAFESEKEIELPKEVPEKLPEAADFGTTSSLHFVHMRGLPFQANAQDIINFFAPLKPVRITMEYSSSGKATGEADVHFETHEDAVAAMLKDRSHVHHRYIELFLNSCPKGK
B7: MTERFD2 (protein, UniProt Q7Z6M4 43-381)
chain: LTTASNGGVIEELSCVRSNNYVQEPECRRNLVQCLLEKQGTPVVQGSLELERVMSSLLDMGFSNAHINELLSVRRGASLQQLLDIISEFILLGLNPEPVCVVLKKSPQLLKLPIMQMRKRSSYLQKLGLGEGKLKRVLYCCPEIFTMRQQDINDTVRLLKEKCLFTVQQVTKILHSCPSVLREDLGQLEYKFQYAYFRMGIKHPDIVKSEYLQYSLTKIKQRHIYLERLGRYQTPDKKGQTQIPNPLLKDILRVSEAEFLARTACTSVEEFQVFKKLLAREEEESESSTSDDKRASLDEDEDDDDEEDNDEDDNDEDDDDEDDDEAEDNDEDEDDDEEE
B8: MTERF2 (protein, UniProt Q49AM1 36-385)
chain: TTDKQSSKENTRTVEKLYKCSVDIRKIRRLKGWVLLEDETYVEEIANILQELGADETAVASILERCPEAIVCSPTAVNTQRKLWQLVCKNEEELIKLIEQFPESFFTIKDQENQKLNVQFFQELGLKNVVISRLLTAAPNVFHNPVEKNKQMVRILQESYLDVGGSEANMKVWLLKLLSQNPFILLNSPTAIKETLEFLQEQGFTSFEILQLLSKLKGFLFQLCPRSIQNSISFSKNAFKCTDHDLKQLVLKCPALLYYSVPVLEERMQGLLREGISIAQIRETPMVLELTPQIVQYRIRKLNSSGYRIKDGHLANLNGSKKEFEANFGKIQAKKVRPLFNPVAPLNVEE

Each binder was assayed against T1, TwinkleFLAG (mtDNA helicase Twinkle with a FLAG tag at its C-terminus) (assay: cross-linking + affinity purification with mass spectrometry; whole cell 1% formaldehyde cross-linking; method B (X-ChIP): RIPA lysis, sonication, RNAse A, DNAse I and Benzonase for 30 min at 37°C, FLAG resin, RIPA washes, 3xFLAG peptide elution; Q Exactive; enriched ≥2 fold by LFQ over TwinkleFLAG -XL and mtLucFLAG +XL; mtDNA-containing cells, levels also compared with ρ° cells).

With B1 as the binder, how does the binding read?
The binding was “binds”.

B2 was tested. Which binding did it give?
The binding was “binds”.

Which binding does the source give for B3 here?
The binding was “binds”.

With B4 as the binder, how does the binding read?
Its binding is “binds”.

B5 was tested. Which binding did it give?
Its binding is “binds”.

With B6 as the binder, how does the binding read?
Its binding is “binds”.

For B7, which binding is on record?
The binding was “binds”.

Which binding does the source give for B8 here?
The binding was “binds”.
